PubChem BioAssay AID1671190 (National Center for Advancing Translational Sciences (NCATS), 2021)
Where “and” joins values, the source holds several entries; their conditions need not be identical. Equal values may be shown once. Out of some 580,000 compounds screened, about 6,100 (1.1%) were called active. This list was built around the results that the source calls inconclusive (neither active nor inactive); the mix of calls is not that of the screen. Calls follow the shape of the dose curve; as a rule, active = well fitted inhibition curve with a large enough effect; inconclusive = small, poorly fitted or top-dose-only effect, or another doubt; inactive = no such curve, though single readings can be large or run the other way. Where the call is inconclusive, the potency comes from a doubtful curve fit.

Chains of the proteins cited; added tags and fusions are not shown. Lines headed by an entry give the natural chain unless they say otherwise; changes in a name come on top.
UniProt P18054: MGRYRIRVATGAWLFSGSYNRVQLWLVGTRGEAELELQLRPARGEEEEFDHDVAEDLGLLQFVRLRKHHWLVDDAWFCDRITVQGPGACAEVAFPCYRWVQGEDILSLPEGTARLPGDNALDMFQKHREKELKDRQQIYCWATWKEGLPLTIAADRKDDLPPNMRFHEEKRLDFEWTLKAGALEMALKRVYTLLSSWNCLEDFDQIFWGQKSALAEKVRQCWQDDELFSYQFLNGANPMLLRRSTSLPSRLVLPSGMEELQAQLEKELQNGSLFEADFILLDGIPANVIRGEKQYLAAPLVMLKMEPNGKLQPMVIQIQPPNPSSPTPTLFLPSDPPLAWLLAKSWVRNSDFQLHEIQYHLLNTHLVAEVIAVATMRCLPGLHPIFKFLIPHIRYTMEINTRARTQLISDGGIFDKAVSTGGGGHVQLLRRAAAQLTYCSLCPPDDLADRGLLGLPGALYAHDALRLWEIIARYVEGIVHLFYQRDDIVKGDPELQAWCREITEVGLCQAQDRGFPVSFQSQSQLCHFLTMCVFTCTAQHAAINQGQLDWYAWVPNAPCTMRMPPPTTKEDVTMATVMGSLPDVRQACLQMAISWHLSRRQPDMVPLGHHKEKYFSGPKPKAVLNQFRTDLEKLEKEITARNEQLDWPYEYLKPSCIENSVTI

Each molecule was assayed against Polyunsaturated fatty acid lipoxygenase ALOX12 (Homo sapiens) (UniProt P18054) (assay: Primary qHTS assay for inhibitors of human arachidonate 12S-lipoxygenase (ALOX12): Round 2). Conditions: purified 12hLO, xylenol orange hydroperoxide absorbance; activity change, negative = inhibition: at 108 µM (top of the series) unless noted.
How it was run: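 Purified human 12hLO (150 nM final) in 25 mM Hepes, 0.01% Triton X-100, pH 7.0 was preincubated 15 min at room temperature with compound. Then 40 uM arachidonic acid was added, 30 min. Hydroperoxide was read by Fe-XO absorbance ratio 573/405 nm.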
% is scaled to controls: 0 for no effect and ±100 for the full control effect; potency is read from the fitted curve at half-maximal effect.

| SMILES | Potency | activity change, negative = inhibition |
| --- | --- | --- |
| Cc1ccc(NC(=O)CNc2nc(Nc3ccc(C)cc3)nc(Nc3ccc(C)cc3)n2)cc1 | inconclusive: 39.8 µM [inhibitor, partial curve, poor fit] | – |
| Cc1ccccc1CN1CCCC2(Cc3ccccc3CNC2=O)C1 (configuration not stated) | inconclusive: 20 µM [inhibitor, full curve, poor fit] | – |
| CC1CCCC(NC(=O)CSc2nccn2C)C1C (configuration not stated) | inconclusive: 35.5 µM [inhibitor, partial curve, poor fit] | – |
| CCOc1cccc2cc(-c3csc(Nc4ccc(OC)cc4OC)n3)c(=O)oc12 | inconclusive: 89.1 µM [inhibitor, single point] | – |
| CCCCCCCCOc1ccc(OC(=O)c2ccco2)cc1 | inconclusive: 112 µM [inhibitor, single point] | – |
| CC(=O)Nc1ccc(NC(=O)c2cc(C)nc3ccccc23)cc1 | – | inactive: 5.25% |
| Cc1cc(=O)[nH]c(N/N=C/c2sccc2C)n1 | – | inactive: -8.47% |
| Cc1ccc(S(=O)(=O)NCC(=O)O)cc1 | inconclusive: 50.1 µM [inhibitor, partial curve, poor fit] | – |
| Cc1cn([C@H]2C[C@H](O)[C@@H](/C=C/C(=O)NCc3ccc(N(C)C)cc3)O2)c(=O)[nH]c1=O | inconclusive: 25.1 µM [inhibitor, partial curve, poor fit] | – |
| COc1ccc(C(=O)NC(=S)N2CCCc3ccccc32)cc1OC | inconclusive: 56.2 µM [inhibitor, partial curve, poor fit] | – |
| O=C(COC(=O)C1=COCCO1)Nc1ccc(F)c(F)c1 | inconclusive: 50.1 µM [inhibitor, partial curve, poor fit] | – |
| Cc1ccc(NC(=O)CSc2nc(-c3ccco3)ccc2C#N)cc1Cl | inconclusive: 50.1 µM [inhibitor, partial curve, poor fit] | – |
| O=C(c1ccc(Cl)cc1)N1CCCC2(C1)NC(=O)N(Cc1ccc(Cl)cc1)C2=O (configuration not stated) | inconclusive: 15.8 µM [inhibitor, full curve, poor fit] | – |
| Cc1cc(C=O)c(C)n1-c1ccc(Cl)c(C(=O)O)c1 | inconclusive: 50.1 µM [inhibitor, partial curve, poor fit] | – |
| COC(=O)[C@H](CC(C)C)NC(=O)Cn1cnc(C(=O)Nc2ccc(C)c(C)c2)n1 | inconclusive: 44.7 µM [inhibitor, partial curve, poor fit] | – |
| CCc1ccc2[nH]c(C)c(CC(=O)O)c2c1 | inconclusive: 12.6 µM [inhibitor, full curve] | – |
| Cc1cc(C(c2ccccc2Cl)N2CCN(C)CC2)c(NC(=O)c2ccco2)s1 (configuration not stated) | inconclusive: 50.1 µM [inhibitor, partial curve, poor fit] | – |
| N#CC1=C2SCN(Cc3ccccc3)CN2C(=O)CC1c1cccs1 (configuration not stated) | inconclusive: 35.5 µM [inhibitor, partial curve, poor fit] | – |
| CS(=O)(=O)N(C1CCNCC1)C1CCOCC1 | – | inactive: 65.3% |
| COc1ccc(Cn2c(=O)[nH]c3cc(C(=O)N4CCN(c5cc(C)ccc5C)CC4)ccc3c2=O)cc1 | – | inactive: -11.7% |
| COc1ccc([C@H]2C(C(=O)O)=C[C@@H](CC3CCCC3)N2S(=O)(=O)c2ccc(C)cc2)cc1OC | inconclusive: 39.8 µM [inhibitor, partial curve] | – |
| O=C(O)/C=C/C(=O)c1ccccc1 | inconclusive: 35.5 µM [inhibitor, partial curve, poor fit] | – |
| N#CC1=C(N)N(c2ccc(Oc3ccccc3)cc2)C(=O)C1 | inconclusive: 44.7 µM [inhibitor, partial curve, poor fit] | – |

| SMILES | Potency | activity change, negative = inhibition |
| --- | --- | --- |
| CSc1ccc(CN(C)C(=O)c2ccc3c(c2)CCCC3)cc1 | – | inactive: -10.1% |
| COc1cccc(CNc2cccc(C(F)(F)F)c2)c1O | inconclusive: 50.1 µM [inhibitor, partial curve, poor fit] | – |
| Cc1ccccc1-c1nccc2c(=O)cc(N(C)C3CCOCC3)oc12 | inconclusive: 100 µM [inhibitor, partial curve, poor fit] | – |
| c1csc(C(Nc2ccc3nnnn3n2)c2ccc3c(c2)CCC3)c1 (configuration not stated) | inconclusive: 11.2 µM [inhibitor, full curve, poor fit] | – |
| O=C(NC(=S)Nc1cccc(Cl)c1)c1cncc(Br)c1 | inconclusive: 89.1 µM [inhibitor, partial curve, poor fit] | – |
| Cc1nnsc1C(=O)NC1CCCc2c1cnn2-c1ccc(F)cc1F (configuration not stated) | – | inactive: -1.22% |
| N#CC1(NC(=O)COC(=O)c2ncc(Cl)c(Cl)c2Cl)CCCCC1 | – | inactive: -18.9% |
| Cc1nnc(NC(=O)c2cc(-c3ccncc3)nc3ccccc23)s1 | inconclusive: 5.62 µM [inhibitor, full curve, poor fit] | – |
| Cc1ccccc1CN1CCC2(CC1)COCCN2C(=O)OCc1ccccc1 | – | inactive: 6.84% [at 176 µM] |
| N#Cc1c(N)n[nH]c1Cc1cccc2ccccc12 | – | inactive: 5.38% |
| O=C(NCCc1ccccc1)c1cnn(-c2ccc(F)cc2)c1-n1cccc1 | – | inactive: -16.3% |
| COc1ccccc1C(=O)N1CCN(S(=O)(=O)Cc2ccccc2)CC1 | inconclusive: 50.1 µM [inhibitor, partial curve, poor fit] | – |
| CCCOc1c(OC)cc(Cl)cc1C1NC(=O)NC(C)=C1C(=O)NCc1ccccc1 (configuration not stated) | – | inactive: 1.17% |
| CCOC(=O)C(NS(=O)(=O)c1ccc(C)cc1)(C(F)(F)F)P(=O)(OCC(C)C)OCC(C)C (configuration not stated) | active: 39.8 µM | – |
| Cc1cccc(NC(=O)COC(=O)c2ccccc2SCC(=O)N2CCCC2)c1 | inconclusive: 7.94 µM [inhibitor, full curve, poor fit] | – |
| CC12CCC(C/C1=N\NC(N)=O)C2(C)C (configuration not stated) | inactive | – |
| CCNc1ccc(S(=O)(=O)N(CC)CC)cc1NC(=O)Cc1ccccc1F | inconclusive: 50.1 µM [inhibitor, partial curve, poor fit] | – |
| CN(C)CCOCCSc1ccc(Cl)cc1 | inconclusive: 1.78 µM [inhibitor, full curve, poor fit] | – |
| CC1=C(C(=O)OCC2CCCO2)C(c2ccccc2OC(C)C)C2=C(CC(c3ccco3)CC2=O)N1 (configuration not stated) | – | inactive: -5.35% |
| COC(=O)Cc1ccc(NC(=S)NCc2ccccc2Cl)cc1 | inconclusive: 44.7 µM [inhibitor, partial curve, poor fit] | – |
| CC(/C=N/NC(=O)C1CC1c1ccc(C(C)(C)C)cc1)c1ccccc1 (configuration not stated) | – | inactive: 37.4% |
| O=S(=O)(c1ccc2ccccc2c1)N1CCN(C2CCN(Cc3ccccc3)CC2)CC1 | inconclusive: 2 µM [inhibitor, full curve, poor fit] | – |
| CCN(CCO)C(=O)c1cnn(-c2ncc3c(n2)-c2ccccc2CCC3)c1C1CC1 | inconclusive: 126 µM [inhibitor, single point] | – |

For convenience, 6 of the compounds above.

| SMILES | Potency | activity change, negative = inhibition |
| --- | --- | --- |
| Cc1nnc(NC(=O)c2cc(-c3ccncc3)nc3ccccc23)s1 | inconclusive: 5.62 µM [inhibitor, full curve, poor fit] | – |
| Cc1ccccc1CN1CCC2(CC1)COCCN2C(=O)OCc1ccccc1 | – | inactive: 6.84% [at 176 µM] |
| N#Cc1c(N)n[nH]c1Cc1cccc2ccccc12 | – | inactive: 5.38% |
| O=C(NCCc1ccccc1)c1cnn(-c2ccc(F)cc2)c1-n1cccc1 | – | inactive: -16.3% |
| COc1ccccc1C(=O)N1CCN(S(=O)(=O)Cc2ccccc2)CC1 | inconclusive: 50.1 µM [inhibitor, partial curve, poor fit] | – |
| CCCOc1c(OC)cc(Cl)cc1C1NC(=O)NC(C)=C1C(=O)NCc1ccccc1 (configuration not stated) | – | inactive: 1.17% |

(list continues)

| SMILES | Potency | activity change, negative = inhibition |
| --- | --- | --- |
| CCCCNCC(O)(c1ccc(Cl)cc1)c1ccc(Cl)cc1 | – | inactive: -8.56% |
| O=C(NCCc1ccccc1)c1cccc(Br)c1 | – | inactive: -5.83% |
| COCCNC(=O)c1cc(C2CC2)nc2c1c(C1CCCN1)nn2-c1ccccc1 (configuration not stated) | inconclusive: 0.403 µM [inhibitor, partial curve, poor fit] | – |
| O=C(Nc1ccncc1)C1CC1c1ccccc1 (configuration not stated) | inconclusive: 100 µM [inhibitor, partial curve, poor fit] | – |
| COc1ccc(/C(=N\O)C(C)(C)O)cc1 | inconclusive: 17.8 µM [inhibitor, partial curve, poor fit] | – |
| Cn1c(=O)[nH]c(Nc2ccccc2)c([N+](=O)[O-])c1=O | – | inactive: 19.5% |
| COC(=O)c1c(NC(=O)CN2CCC3(O)CCCCC3C2c2ccc(OC)cc2OC)sc(C)c1C (configuration not stated) | inconclusive: 39.8 µM [inhibitor, partial curve] | – |
| COc1ccc(CNC(=O)N2CCN(S(=O)(=O)c3cc(F)ccc3F)CC2)cn1 | inconclusive: 70.8 µM [inhibitor, partial curve, poor fit] | – |
| CCC/C=N/NC(=O)CCCC(=O)N/N=C/CCC | – | inactive: 2.68% |
| COC(=O)[C@H](CCSC)NC(=O)Nc1cccc(Br)c1 | inconclusive: 89.1 µM [inhibitor, partial curve, poor fit] | – |
| Cc1cccc(NC(=O)C2C(c3ccccc3)C2(Cl)Cl)c1 (configuration not stated) | inconclusive: 89.1 µM [inhibitor, single point] | – |
| O=S1(=O)C[C@H](N2CCC[C@@H]2CO)[C@@H](COCc2ccccc2)N1 | inconclusive: 100 µM [inhibitor, single point] | – |
| NC(=O)c1ccccc1NC(=O)c1ccc(-c2ccccc2)cc1 | inconclusive: 100 µM [inhibitor, partial curve, poor fit] | – |
| COc1ccc2nc(COC(=O)c3cccc([N+](=O)[O-])c3)c(C(C)=O)[n+]([O-])c2c1 | – | inactive: 0% |
| CC12CCC(C[N+](C)(C)C1)C2(C)C (configuration not stated) | inconclusive: 50.1 µM [inhibitor, partial curve, poor fit] and inconclusive: 8.91 µM [inhibitor, partial curve, poor fit] | – |
| COc1ccc(C(=O)O)cc1NC(=S)NC(=O)c1ccc(-c2ccc(Cl)cc2)o1 | inconclusive: 28.2 µM [inhibitor, partial curve, poor fit] | – |
| CCCc1cc(C(=O)N/N=C/c2ccc(C)o2)c2ccccc2n1 | – | inactive: -8.26% [at 57.4 µM] |
| Cc1cccc(-c2ocnc2C(=O)Nc2ccccc2NC(=O)c2ccccn2)c1 | – | inactive: 30.7% |
| O=C(COC(=O)c1ccccn1)c1cccc(Br)c1 | – | inactive: -16.3% |
| CCNc1c(NC(=O)c2ccc3c(c2)OCO3)c(=O)oc2ccccc12 | inconclusive: 31.6 µM [inhibitor, single point] | – |
| Cc1ccc(Cc2c(-c3ccc(Cl)cc3)nc3ccc(Cl)cn23)cc1 | inconclusive: 44.7 µM [inhibitor, partial curve, poor fit] | – |
